Data reported in patent US20110263483A1 (UNIVERSITY OF UTAH RESEARCH FOUNDATION, published 2011).

Target: T1, Robo4 cytoplasmic tail-HA (UniProt Q8C310 494-1012, limits assumed)
T1 construct: domain: cytoplasmic tail; also called Robo4 tail
T1 sequence (looked up): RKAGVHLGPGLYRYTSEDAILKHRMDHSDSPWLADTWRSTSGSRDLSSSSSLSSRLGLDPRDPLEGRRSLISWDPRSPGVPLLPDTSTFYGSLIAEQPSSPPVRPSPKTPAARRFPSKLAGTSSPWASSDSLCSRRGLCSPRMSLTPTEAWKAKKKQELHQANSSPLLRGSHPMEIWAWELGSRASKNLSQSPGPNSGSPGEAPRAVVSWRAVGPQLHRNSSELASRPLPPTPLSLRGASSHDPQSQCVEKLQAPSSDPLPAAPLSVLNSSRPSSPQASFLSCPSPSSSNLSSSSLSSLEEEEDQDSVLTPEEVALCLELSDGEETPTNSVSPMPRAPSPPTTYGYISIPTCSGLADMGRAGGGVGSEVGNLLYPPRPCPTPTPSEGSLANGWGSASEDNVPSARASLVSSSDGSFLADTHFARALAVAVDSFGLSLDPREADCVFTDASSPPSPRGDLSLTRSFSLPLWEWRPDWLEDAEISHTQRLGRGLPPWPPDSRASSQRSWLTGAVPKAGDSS
Assay: co-immunoprecipitation from co-transfected HEK 293 cells
Method: Robo4 was immunoprecipitated from cell lysates with HA antibodies, and paxillin was detected by western blotting with V5 antibodies. […] Robo4 was immunoprecipitated with HA antibodies, and paxillin was detected by western blotting with V5 antibodies. […] Knock down and reconstitution were visualized by western blotting with paxillin antibodies and quantified by densitometry. Paxillin expression was determined to be 35% of wild-type levels. […] Results are presented as the mean±SE.
Lim4 of Paxillin is required for Interaction with Robo4 and Robo4-dependent Inhibition of Cell Spreading: Although Robo4APIM maintains its interaction with Mena (FIG. 4E), it is possible that this mutation perturbed interaction of Robo4 with proteins other than paxillin. To address this issue definitively, paxillin mutants were generated that disrupt association with Robo4. Paxillin is a modular protein composed of N-terminal leucine/aspartic acid (LD) repeats and C-terminal Lim domains (FIG. 6A). […] To validate this notion, co-immunoprecipitation experiments were performed using HEK 293 cells co-transfected with the Robo4 tail and either paxillin-LD or paxillin-Lim.

binding result: no binding
B1: paxillin-LD (other, murine, UniProt Q8VI36 1-355, looked up, not shown: small tags and cut ends)
chain: MDDLDALLADLESTTSHISKRPVFLSEEPPYSYPTGNHTYQEIAVPPPVPPPPSSEALNGTVLDPLDQWQPSGSRYAHQQPPSPLPVYSSSAKNSSASNTQDGVGSLCSRAGEEEHVYSFPNKQKSAEPSPTVMSSSLGSNLSELDRLLLELNAVQHSPPGFPADEAESSPPLPGALSPLYGIPENNTPLGGKAGPLVKEKPKRNGGRGLEDVRPSVESLLDELESSVPSPVPAITVNQGEMSSPQRVTSSQQQTRISASSATRELDELMASLSDFKMQGLEQRVDGERPWAAGWPPSSRQSSPEGQDEGGFMAQGKTGSSSPPGGLSKPGSQLDSMLGSLQSDLNKLGVATVAK
notes: domain: LD repeats
